Assay results reported in PubChem BioAssay AID445 (National Center for Advancing Translational Sciences (NCATS), 2006).
Some of the results follow. The main result of the screen is listed elsewhere. These columns were measured beside it and carry no call. The list favours compounds with an active or inconclusive main result. Potencies come from curve fits of mixed quality, noted in brackets.

Assay: IkB Signaling
Settings: ABC-DLBCL IkBa-CBG/CBR dual luciferase ratio (green luciferase fused to IkBa over red control in OCI-Ly3 lymphoma cells), 4 h; measured here: control luc red channel unless noted
In short: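 In this assay, an IκBα–CBG68 fusion accumulates when IKK-driven degradation is blocked; native CBR normalizes for cell number. OCI-Ly3 cells were treated 4 h with compound and doxycycline, then green and red light read after Chroma-Glo addition.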

| Compound | AC50 |
| --- | --- |
| CC(=O)c1cccc(NC(=O)CSc2nnc3ccc(-c4ccc(Br)cc4)nn23)c1 | 6.31 µM [rising, single point] |
| Cc1ccc(Nc2c(-c3c[nH]c4ccccc34)nc3ccccn23)cc1 | 0.0316 µM [falling, full curve] |
| CC(C)Oc1ccccc1-c1nc(SCC(=O)c2ccc(F)cc2)n[nH]1 | 25.1 µM [falling, single point] |
| Cc1ccc(CNC(=O)CSc2nc3c(sc4ccccc43)c(=O)n2CCCOC(C)C)cc1 | 7.94 µM [rising, partial curve] |
| COc1ccc(OC)c(CCNC(=O)c2cc3c(s2)-c2c(C)cccc2OC3)c1 | 6.31 µM [falling, full curve, poor fit] |
| O=C(c1ccc(F)cc1)c1cn(Cc2ccccc2F)c2cc3c(cc2c1=O)OCCO3 | 25.1 µM [falling, single point] |
| Cc1cccc(-c2nc(CN3CCCC(C(=O)N4CCN(c5cc(Cl)ccc5C)CC4)C3)c(C)o2)c1 (stereo not given) | 12.6 µM [falling, partial curve] |
| COC(=O)CSc1ncc2c(n1)-c1ccccc1N(Cc1ccc(Cl)cc1)S2(=O)=O | 31.6 µM [falling, partial curve] |
| COc1ccc(NC(=O)c2c(C)oc3ccc(O)c(CN4CCC(C)CC4)c23)cc1Cl | 25.1 µM [falling, single point] |
| Cn1ncc2c(Nc3cc(C(F)(F)F)ccc3Cl)ncnc21 | 5.01 µM [rising, full curve, poor fit] |
| CC(NC(=O)c1ccc2c(c1)N(Cc1ccc(Cl)cc1)C(=O)CS2)c1ccccc1 (stereo not given) | 6.31 µM [falling, partial curve] |
| Cc1nn2c3cc(N4CCOCC4)ccc3nc2c2ccccc12 | 3.98 µM [rising, partial curve] |
| CC(=O)Oc1ccc(N2C(=O)C3C(C2=O)C2(C)C=CC3(C)O2)cc1 (stereo not given) | 5.01 µM [falling, full curve] |
| CCN(c1cccc(C)c1)S(=O)(=O)c1cc(Br)cc2c1N(C(C)=O)C(C)C2 (stereo not given) | 20 µM [falling, partial curve] |
| CCc1ccc(-n2nnc(-c3nc(-c4cccs4)no3)c2N)cc1 | 2.51 µM [rising, partial curve] |
| CC(C)OC(=O)c1ccc(Cn2nnc3sc4c(c3c2=O)CCCC4)cc1 | 12.6 µM [falling, partial curve] |
| CCCN(c1c(C)n(C)n(-c2ccccc2)c1=O)S(=O)(=O)c1ccc(C)cc1 | 3.98 µM [rising, partial curve] |
| COc1cc(Br)cc(/C=N/c2ncn[nH]2)c1O | 7.94 µM [falling, full curve, poor fit] |
| CC(C)(C)C1CCc2c(sc(NC(=O)c3cc4ccccc4c(=O)o3)c2C(N)=O)C1 (stereo not given) | 10 µM [falling, partial curve] |
| COc1ccccc1NC(=O)CN1CCN(CC(=O)Nc2ccc(Cl)c(C(F)(F)F)c2)CC1 | 7.94 µM [falling, partial curve] |

| Compound | AC50 |
| --- | --- |
| Cc1ccc(-c2nc(C)c(CCNC(=O)c3cccs3)s2)cc1 | 39.8 µM [falling, partial curve, poor fit] |
| Clc1ccccc1C1=Nn2c(nnc2-c2ccncc2)SC1 | 15.8 µM [falling, partial curve] |
| O=C(CSc1nnc(-c2ccco2)n1Cc1ccccc1)c1ccc(F)cc1 | 31.6 µM [falling, single point] |
| CC1CCN(c2nn3c(=O)c(C(=O)NCCCOC(C)C)cnc3s2)CC1 | 12.6 µM [rising, partial curve] |
| CC(=O)c1ccc(N2CCN(C(=O)c3cc4c(-c5ccccc5F)nn(C)c4s3)CC2)cc1 | 3.16 µM [falling, full curve] |
| O=C(c1cc2nc(-c3ccccc3)cc(-c3ccccc3)n2n1)N1CCN(C(=O)c2ccco2)CC1 | 7.94 µM [falling, partial curve] |
| CCc1cccc(NC(=O)c2cc3c(=O)n(Cc4ccccc4)ccc3nc2C)c1 | 15.8 µM [falling, single point] |
| CC(C)c1ccc(NC(=O)C2CCN(C(=O)c3ccc(F)cc3)CC2)cc1 | 25.1 µM [falling, partial curve] |
| COc1cc(C(=O)Nc2ccccc2-c2nc(-c3ccccc3)no2)cc(OC)c1OC | 0.1 µM [rising, full curve] |
| Cc1ccc2nc(-c3cccs3)c(Nc3c(C)cccc3C)n2c1 | 7.94 µM [falling, full curve] |
| Cc1c(C(=O)NCc2ccc(F)cc2)oc2ccc(S(=O)(=O)N3CCCCC3)cc12 | 25.1 µM [falling, partial curve, poor fit] |
| COc1ccc(NC(=O)[C@H]2O[C@@H]3OC(C)(C)O[C@@H]3[C@H]3OC(C)(C)O[C@H]32)c(OC)c1 | 20 µM [falling, partial curve] |
| COc1ccc(CCNc2oc(Cc3ccccc3)nc2C#N)cc1OC | 25.1 µM [falling, single point] |
| Cn1c(=O)[nH]c(=O)c2c1nc(N1CCOCC1)n2Cc1ccccc1 | 0.0126 µM [rising, full curve, poor fit] |
| c1ccc2c(c1)oc1c(Nc3ccc(CN4CCOCC4)cc3)ncnc12 | 3.98 µM [falling, partial curve] |
| Cc1ccc(NC(=O)CSc2nc(=O)n(Cc3cccnc3)c3c2CCC3)cc1F | 12.6 µM [falling, partial curve] |
| Cc1ccccc1Oc1nc2ccccn2c(=O)c1/C=C(\C#N)c1nc2ccccc2[nH]1 | 31.6 µM [falling, single point] |
| COc1ccc(Cc2nc3ccc(C(=O)NCc4ccccc4C)cc3o2)cc1 | 5.01 µM [falling, partial curve, poor fit] |
| COc1ccc(NC(=O)CN2C(=O)CC(c3ccc(C)c(C)c3)=Nc3ccccc32)cc1OC | 31.6 µM [falling, partial curve] |
| COc1ccc(N(Cc2cc3ccccc3[nH]c2=O)C(=O)c2cccc(Cl)c2)cc1 | 25.1 µM [falling, partial curve] |
